# Measurements taken from the supplement of paper PMC3334620.
# The full ranking holds about 33,000 sequences; the median of “E-score (-0.5 to 0.5)” is about -0.0014, and the highest 2% start at about 0.25. The list shows a part of the results.
# Target: T1, Cad1 (UniProt P24813)
# T1 sequence: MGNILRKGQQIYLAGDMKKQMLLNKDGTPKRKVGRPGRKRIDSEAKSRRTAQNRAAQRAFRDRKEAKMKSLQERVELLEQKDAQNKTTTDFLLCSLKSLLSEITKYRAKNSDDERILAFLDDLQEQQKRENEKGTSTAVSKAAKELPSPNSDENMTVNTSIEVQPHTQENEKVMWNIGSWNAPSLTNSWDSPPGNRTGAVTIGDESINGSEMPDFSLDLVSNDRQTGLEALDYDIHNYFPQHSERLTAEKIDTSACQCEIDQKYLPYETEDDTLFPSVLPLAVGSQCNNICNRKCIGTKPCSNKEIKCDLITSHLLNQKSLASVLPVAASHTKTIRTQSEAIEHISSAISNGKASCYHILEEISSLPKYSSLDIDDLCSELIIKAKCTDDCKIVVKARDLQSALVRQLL
# Test: PBM E-score (8-mer binding enrichment) (E-score (-0.5 to 0.5)); higher = stronger / more preferred TF binding
# Settings: protein concentration: 100 nM; construct: GST-full length
# Method in brief: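 GST-tagged yeast TFs (full-length or DNA-binding domain) were made by PURExpress in vitro transcription/translation and applied at about 100-200 nM to universal all-10-mer Agilent arrays. The arrays were made double-stranded by primer extension, on fresh or once-stripped slides. Bound protein was detected with fluorescent anti-GST, and scans were normalised with masliner. Each ungapped eight-base word, pooled with its reverse complement, received an E-score (modified Wilcoxon-Mann-Whitney statistic) from the Universal PBM Analysis Suite.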
row,Sequence,PBM E-score
1,CTCAGGAG,-0.279
2,ATAATCGA,0.146
3,CAGTTGGG,-0.0373
4,AGAGTGGG,-0.233
5,ACTTCCGC,0.012
6,CAGTTCCC,-0.0464
7,CGCTGGAC,-0.125
8,AGTTTCAC,0.0282
9,ACGCATAC,0.125
10,ACCGTCGC,0.087
11,CTATTGCA,0.0473
12,ACCTGTGG,-0.217
13,ACATGACT,-0.0936
14,CGCAGTCA,-0.122
15,TACGTACA,0.0186
16,AAGTCAGG,0.08
17,ACTTGCGG,-0.0852
18,ACCAGCTG,0.074
19,AAGATAGA,0.0137
20,CAGGTATA,0.0535
21,CATATCAA,0.259
22,GGCCCCAA,-0.0912

row,Sequence,PBM E-score
1,CGCTAGGC,-0.177
2,AGCCGAAT,0.0754
3,AACGCTGG,-0.0444
4,ACGTATTC,0.121
5,AGGTACGC,-0.0312
6,CCTTATCG,0.0678
7,GCTTCGCC,-0.3
8,CTTTTGCA,0.112
9,CACCCAAA,0.0573
10,ACCAATAA,-0.00211
11,CTGCGTAA,0.0735
12,TCCAGGAA,0.00079
13,CCATAGGA,0.00218
14,AAATTCAG,0.21
15,GTGCAAAA,0.0709
16,GAACCACC,-0.00416
17,AGTCAGCG,0.216
18,ATCCAGAG,0.0179
19,GTCGGAGA,-0.0335
20,ACTGCTGC,-0.0542
21,TCCCCTAA,-0.13
22,TCGCAAGA,-0.181

row,Sequence,PBM E-score
1,CTTGACGC,-0.0616
2,AACGTCGG,0.0485
3,ATAGCTTA,0.0713
4,CATGATGC,0.0704
5,ATGGCTAG,-0.0638
6,CCGTGCGC,0.0355
7,AGGAGACC,-0.166
8,CGTGTGCC,-0.014
9,ATGGCGCG,0.00983
10,GCAGCCCC,-0.0114
11,ACCTTACG,0.193
12,GGATATTA,0.163
13,AGATGCAT,0.0733
14,CAACTCAG,-0.0657
15,AACCGAGA,0.0525
16,AGTAATGC,0.055
17,CTCCCCAC,-0.104
18,CGAGGCTC,-0.138
19,CACGCGGG,0.0476
20,CTAGCGGA,-0.068
21,GTAAACCA,0.0154
22,ATTCGTAG,0.0619

# Single values from the list.
# ATAGCTTA – PBM E-score: 0.0713
# ATTCGTAG – PBM E-score: 0.0619
# CTTGACGC – PBM E-score: -0.0616
# AACGTCGG – PBM E-score: 0.0485

# (listing goes on)

row,Sequence,PBM E-score
1,ATTTTCAG,0.145
2,GCTAGCCC,-0.27
3,TCGACAAA,0.195
4,ATCCTCTA,-0.25
5,GGTAAGAA,-0.129
6,CGACCGGA,-0.215
7,GTGGAAGA,-0.13
8,CTAGGTGC,-0.221
9,ACAGAGAA,0.0176
10,CGGCCGAC,0.0674
11,ACTGGCGG,0.0311
12,GTAAGTCA,0.0222
13,TATTGAGA,0.186
14,CCTTTAAG,-0.104
15,ACCGGCGG,-0.209
16,ACGCCCGA,0.0212
17,CGAAAAAG,0.137
18,AAAATTTA,0.153
19,GCATCAAC,0.0863
20,CCTGTAAG,-0.0737
